Reference: article PMC6018503
These are yes or no findings as the source states them, for the method shown. For some assays here: Binding calls can cover weak binding; strength is not graded here. For some assays here: In cells and extracts the contact can be indirect.

B1: OsRFC1 (protein, UniProt Q2R2B4 1-1021)
chain: MSSDIRKWFMKAQDKNGGAAKPAGTTALAKKPVLSIPEKPSAAPSMAACDQDCSARRKTSKYFASKTEKEEDTSAGKGTGRGLPKRKLQKVSDELEDDMKPLPAKEVHKEEEDDDDDDFVAPSKRKTPVKPPPSKKLKGASTAEAHGKTGLDDDNEDKMDEDAKTPSKASGSGRGRGRGRGRGGRGAGAAHGKTIGLDDDGEEDKMDEDAKTPSKAAGRGRGGASGGRGRGGGGRGFMNFGERKDPPHKGEKEVPEGAPDCLTGLTFVISGTLDSLEREEATDLIKRYGGRVTGSISKKTNYLLADEDVGGVKSNKAKELGVPFLTEDGLFDMIRKSKPAKATVAKHQSDKNSEKQQKSPMKSSPVKVERRDGNQITTGKNISPKSNKGSASIDNQKVNIVDRGSLQWTEKYRPKVPNDIVGNQSMVKQLHDWLRSWEDQFLHSGQKGKGKKQADSGAKKAVLLSGPPGIGKTTTAKVVSQMLGLQAIEVNASDSRGKADSKIEKGVGGSTSNSIKELISNATLNYSNNRLKRPKAVLVMDEVDGMSAGDRGGVADLIASIKMSKIPIICICNDRYSQKLKSLVNYCLLLNFRKPTKQQMGKRLMEIAKKEGLQAQENAMEELAERVHGDIRMALNHLQYMSLSQSVVKYDDIRQRLNSSTKDEDISPFTAVDKLFGFNGGRLRMDERIDLSMSDPDLVPLIIQENYINYRPITVGKDDSGVKRMNFLARAAESIADADIVNVQIRRYRQWQLSQAACLSSSIVPAALMHGNREILEAGERNFNRFGGWLGKYSTTNKNIRLLEDAHSHILASQQANLDRESLRLDYLTLLLRQLTDPLKTMPKDEAVQKVVEFMDTYSLSQEDFDTIVELSKFKGHPNPMDGIQPAVKSALTKAYKQGSSSRVVRAADLVNIPGMKKPLKKRVAAILEPVGESLPEENGVASSEGDEEDSSDAENNDELVPGDTKPKLDLQSDKKKGIQVQLDLKSNGNGLNSKKMPAGRSKASGSAGKAAGGSGGKRKR
B2: OsRFC4 (protein, UniProt Q7XRX1 1-335)
chain: MDASSSSAPDLADAYDIPWVEKYRPTRVADVGGNSDAVARLQDIARDGNMPNLILSGPPGTGKTTSILSLAHELLGPSYREAVLELNASDDRGLDVVRNKIKMFAQKKVTLQPGRHKIVILDEADSMTSGAQQALRRTMEIYSNTTRFALACNTSSKIIEPIQSRCAIVRFSRLSDQEILGRLMIVVAAEKVPYVPEGLEAIIFTADGDMRQALNNLQATVSGFRFVNQENVFKVCDQPHPLHVKNMVKNVLDGKFDEACSALKQLYDLGYSPTDIITTLFRVIKNYDMAEYLKLELLKETGFAHMRICDGVGSFLQLSGLLAKFALVRETAKAS
B3: AtRFC4 Δ1–213 (domain or fragment, UniProt Q93ZX1 214-339)
chain: ITYLQSATRLFGSTITSTDLLNVSGVVPLEVVNKLFTACKSGDFDIANKEVDNIVAEGYPASQIINQLFDIVAEADSDITDMQKAKICKCLAETDKRLVDGADEYLQLLDVASSTICALSEMAQDF
B4: AtRFC2 (protein, UniProt Q9CAM7 1-333)
chain: MASSSSTSTGDGYNEPWVEKYRPSKVVDIVGNEDAVSRLQVIARDGNMPNLILSGPPGTGKTTSILALAHELLGTNYKEAVLELNASDDRGIDVVRNKIKMFAQKKVTLPPGRHKVVILDEADSMTSGAQQALRRTIEIYSNSTRFALACNTSAKIIEPIQSRCALVRFSRLSDQQILGRLLVVVAAEKVPYVPEGLEAIIFTADGDMRQALNNLQATFSGFSFVNQENVFKVCDQPHPLHVKNIVRNVLESKFDIACDGLKQLYDLGYSPTDIITTLFRIIKNYDMAEYLKLEFMKETGFAHMRICDGVGSYLQLCGLLAKLSIVRETAKAP
B5: AtRFC1 Δ897-956 (domain or fragment, UniProt Q9C587 1-896)
chain: MSDIRKWFMKAHEKGNGSAPKSTSSKAGPVKNAAETAPIKSEQASEDLETADRRKTSKYFGKDKTKVKDEKEVEAIPAKRKLKTESDDLVKPRPRKVTKVVDDDDDDFDVPISRKTRDTTPSKKLKSGSGRGIASKTVDNDDDDDGEDKETPLKSAGRGRGGRAAPGASTGGRGRGGGRGGFMNFGERKDPPHKGEKEVPEGTPDCLAGLTFVISGTLDSLEREEAEDLIKRHGGRITGSVSKKTTYLLCDEDIGGRKSEKAKELGTKFLTEDGLFDIIRSSKPVKKSLPERSNKGTEKICAPPKTSPQKEETRGKPLAKSSPKKVPPAKGKNKIIETSLPWTEKYRPKVPNEIVGNQSLVTQLHNWLSHWHDQFGGTGSKGKGKKLNDAGSKKAVLLSGTPGIGKTTSAKLVSQMLGFQAVEVNASDSRGKANSNIAKGIGGSNANSVKELVNNEAMAANFDRSKHPKTVLIMDEVDGMSAGDRGGVADLIASIKISKIPIICICNDRYSQKLKSLVNYCLPLNYRKPTKQQMAKRLMHIAKAEGLEINEIALEELAERVNGDIRLAVNQLQYMSLSMSVIKYDDIRQRLLSSAKDEDISPFTAVDKLFGYNGGKLRMDERIDLSMSDPDLVPLLIQENYLNYRPSGKDEAKRMDLLARAAESIADGDIINVQIRRYRQWQLSQSCCVASSILPASLLHGSREVLEQGERNFNRFGGWLGKNSTAGKNRRLMEDLHVHVLASRESSAGRETLRVDYLPLLLSRLTSPLQTLPKDEAVSEVVDFMNSYSISQEDFDTILELGKFKGRENPMEGVPPPVKAALTKKYNEMNKTRMVRVADMVQLPGVKKAPKKRIAAMLEPTVDSLRDEDGEPLADNEEGNGSDAEEDSEEATDGEK
B6: AtRFC2 Δ1–224 (domain or fragment, UniProt Q9CAM7 225-333)
chain: VNQENVFKVCDQPHPLHVKNIVRNVLESKFDIACDGLKQLYDLGYSPTDIITTLFRIIKNYDMAEYLKLEFMKETGFAHMRICDGVGSYLQLCGLLAKLSIVRETAKAP
B7: AtRFC2 Δ314–333 (domain or fragment, UniProt Q9CAM7 1-313)
chain: MASSSSTSTGDGYNEPWVEKYRPSKVVDIVGNEDAVSRLQVIARDGNMPNLILSGPPGTGKTTSILALAHELLGTNYKEAVLELNASDDRGIDVVRNKIKMFAQKKVTLPPGRHKVVILDEADSMTSGAQQALRRTIEIYSNSTRFALACNTSAKIIEPIQSRCALVRFSRLSDQQILGRLLVVVAAEKVPYVPEGLEAIIFTADGDMRQALNNLQATFSGFSFVNQENVFKVCDQPHPLHVKNIVRNVLESKFDIACDGLKQLYDLGYSPTDIITTLFRIIKNYDMAEYLKLEFMKETGFAHMRICDGVGSY
B8: AtRFC2 Δ294–333 (domain or fragment, UniProt Q9CAM7 1-293)
chain: MASSSSTSTGDGYNEPWVEKYRPSKVVDIVGNEDAVSRLQVIARDGNMPNLILSGPPGTGKTTSILALAHELLGTNYKEAVLELNASDDRGIDVVRNKIKMFAQKKVTLPPGRHKVVILDEADSMTSGAQQALRRTIEIYSNSTRFALACNTSAKIIEPIQSRCALVRFSRLSDQQILGRLLVVVAAEKVPYVPEGLEAIIFTADGDMRQALNNLQATFSGFSFVNQENVFKVCDQPHPLHVKNIVRNVLESKFDIACDGLKQLYDLGYSPTDIITTLFRIIKNYDMAEYLKL
B9: AtRFC1 (protein, UniProt Q9C587 1-956)
chain: MSDIRKWFMKAHEKGNGSAPKSTSSKAGPVKNAAETAPIKSEQASEDLETADRRKTSKYFGKDKTKVKDEKEVEAIPAKRKLKTESDDLVKPRPRKVTKVVDDDDDDFDVPISRKTRDTTPSKKLKSGSGRGIASKTVDNDDDDDGEDKETPLKSAGRGRGGRAAPGASTGGRGRGGGRGGFMNFGERKDPPHKGEKEVPEGTPDCLAGLTFVISGTLDSLEREEAEDLIKRHGGRITGSVSKKTTYLLCDEDIGGRKSEKAKELGTKFLTEDGLFDIIRSSKPVKKSLPERSNKGTEKICAPPKTSPQKEETRGKPLAKSSPKKVPPAKGKNKIIETSLPWTEKYRPKVPNEIVGNQSLVTQLHNWLSHWHDQFGGTGSKGKGKKLNDAGSKKAVLLSGTPGIGKTTSAKLVSQMLGFQAVEVNASDSRGKANSNIAKGIGGSNANSVKELVNNEAMAANFDRSKHPKTVLIMDEVDGMSAGDRGGVADLIASIKISKIPIICICNDRYSQKLKSLVNYCLPLNYRKPTKQQMAKRLMHIAKAEGLEINEIALEELAERVNGDIRLAVNQLQYMSLSMSVIKYDDIRQRLLSSAKDEDISPFTAVDKLFGYNGGKLRMDERIDLSMSDPDLVPLLIQENYLNYRPSGKDEAKRMDLLARAAESIADGDIINVQIRRYRQWQLSQSCCVASSILPASLLHGSREVLEQGERNFNRFGGWLGKNSTAGKNRRLMEDLHVHVLASRESSAGRETLRVDYLPLLLSRLTSPLQTLPKDEAVSEVVDFMNSYSISQEDFDTILELGKFKGRENPMEGVPPPVKAALTKKYNEMNKTRMVRVADMVQLPGVKKAPKKRIAAMLEPTVDSLRDEDGEPLADNEEGNGSDAEEDSEEATDGEKLESNLKNLNARGIQVELDLKGAGSSGSRKAAGKGRGRGKAADTSAEKKATGRGSGAKRKR
B10: AtRFC5 (protein, UniProt Q8VXX4 1-354)
chain: MLWVDKYRPKSLDKVIVHEDIAQKLKKLVSEQDCPHLLFYGPSGSGKKTLIMALLKQIYGASAEKVKVENRAWKVDAGSRTIDLELTTLSSTNHVELTPSDAGFQDRYIVQEIIKEMAKNRPIDTKGKKGYKVLVLNEVDKLSREAQHSLRRTMEKYSSSCRLILCCNSSSKVTEAIKSRCLNVRINAPSQEEIVKVLEFVAKKESLQLPQGFAARIAEKSNRSLRRAILSLETCRVQNYPFTGNQVISPMDWEEYVAEIATDMMKEQSPKKLFQVRGKVYELLVNCIPPEVILKRLLHELLKKLDSELKLEVCHWAAYYEHRMRLGQKAIFHIEAFVAKFMSIYKNFLISTFG

Experiments:
[1] = target: T1, AtRFC2 (Arabidopsis thaliana) (UniProt Q9CAM7); test: split reporter; BiFC; YFP^N (aa 1-155) and YFP^C (aa 156-239) fusions (pCAMBIA-SPYNE, pCAMBIA-SPYCE) co-expressed in tobacco (Nicotiana benthamiana) leaf epidermal cells through Agrobacterium GV3101; confocal microscopy of YFP; only the two named fusions
T1 sequence: B4 chain

[2] = target: AtRFC3 (Arabidopsis thaliana); test: as above
[3] = target: AtRFC3 (Arabidopsis thaliana); test: two-hybrid; yeast two-hybrid; full-length ORFs in pGADT7 (AD) and pGBKT7 (BD); co-transformed strains spotted on SD-L-T and SD-L-T-H-A plates; empty AD or BD plasmids as negative controls
[4] = target: AtRFC3 (Arabidopsis thaliana); test: split reporter; BiFC in tobacco leaf epidermal cells with truncated AtRFC proteins, pairs that include AtRFC1 or a truncated AtRFC1; whether the other small subunits were co-expressed is not said

Molecule | binding [2] | further results
AtRFC3 Δ1–247 (Arabidopsis thaliana) (domain or fragment) |  | binding [1]: binds
B1 | binds | 
B2 | binds | 
B3 | binds | 
B4 |  | binding [3]: binds
B5 |  | binding [4]: no binding
B6 | no binding | 
B7 | no binding | 
B8 | no binding | 
B9 |  | binding [3]: no binding
B10 |  | binding [3]: no binding
